Data source: PubChem BioAssay AID1259424 (University of Nebraska Medical Center, 2018)

Assay: 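Rank knockdowns across the genome by resemblance to the KSR1 depletion profile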 (primary screen)
Cell system: human HCT116 colon cancer cells
Reagent: siRNA pool against human genes, 50 nM
Measurement: 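Six signature mRNAs by branched-DNA multiplex assay, scaled to two housekeeping genes and non-targeting median, log2; matched to mean KSR1 knockdown profile by Pearson correlation and euclidean distance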
Reading the numbers: mean correlation with KSR1 profile: higher = expression change more like KSR1 knockdown; mean distance from KSR1 profile: higher = expression change less like KSR1 knockdown
The deposit covers about 14,000 reagents; below is a random part of them. 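Higher correlation or smaller distance means closer resemblance to KSR1 loss; control wells, including KSR1 knockdowns, recur on many plates.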 The numbers tell different reagents against one gene apart. Not all columns of the deposit are shown. Not stated in the record: the time to read-out.

gene	reagent	mean correlation with KSR1 profile	mean distance from KSR1 profile
NAP1L3	1	0.269	1.22
TBX2	1	0.769	0.859
DDX23	1	-0.334	1.73
GLMN	1	-0.285	2.26
NCOA4	1	0.361	1.5
TEF	1	-0.758	2.53
MYCLP1	1	-0.305	2.16
GTPBP2	1	-0.28	1.97
ZBTB26	1	-0.141	2.16
SCN1B	1	0.635	1.62
PTPRH	1	-0.818	3.39
ITGB1BP2	1	-0.144	1.7
STRN	1	0.735	1.2
NSF	1	-0.298	2.82
RHO	1	0.555	1.92
SERPINB1	1	-0.399	3.06
HECA	1	-0.32	1.79
WDR7	1	0.173	5.79
ZMYND15	1	0.839	1.35
CD79B	1	-0.102	3.18
RIPK3	1	0.399	2.76
IGFBP2	1	-0.151	1.69
BATF	1	0.921	1.2
INIP	1	0.152	2.21
TGIF1	1	-0.47	2.95
GEMIN7	1	0.596	1.28
ALAD	1	-0.467	3.88
H4C4	1	0.127	1.17
ARF4	1	-0.36	1.71
DENND11	1	-0.00314	2.69
COLEC12	1	0.598	1.39
OVGP1	1	-0.423	1.35
PLPPR1	1	-0.123	2.74
PARM1	1	0.842	0.689
TRIM52	1	0.212	3.45
PRMT2IP	1	-0.174	4
HYDIN	1	-0.644	10
PLG	1	0.0798	1.62
SLC33A1	1	-0.231	1.74
WDR87	1	0.407	1.82
ECE2	1	0.972	1.43
ECE2	2	-0.179	2.88
MTMR11	1	-0.937	1.99
ERCC2	1	-0.61	2.16
IGHG3	1	-0.156	2.23
CBX7	1	-0.163	1.11
MAP1A	1	-0.622	1.23
NCKAP5L	1	-0.441	4.3
FXYD1	1	0.184	2.37
PCSK6	1	0.0318	2.52

Limited to “mean distance from KSR1 profile” (7 entries from above):
HECA = 1.79
WDR7 = 5.79
ZMYND15 = 1.35
CD79B = 3.18
RIPK3 = 2.76
IGFBP2 = 1.69
BATF = 1.2
